Measurements from “University of Dundee, Small-Polar-MMV Screening Library” (2021), ChEMBL document CHEMBL3988442.

Mtb heat-shock: 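Assay on Mycobacterium tuberculosis, filed only as a heat shock assay from Cornell; the read-out is not stated. The concentration is filed as 10 mM, unlikely as a test dose, so the dose is not known. The record gives no direction; compounds that gave an IC50 in retests scored well above the rest, so higher reads as stronger inhibition. About 69,000 compounds were tested under these conditions; 1.4% (about 930) showed 50% or more at least once.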
Mtb growth Cornell: 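Whole-cell assay for inhibitors of Mycobacterium tuberculosis growth, labelled Cornell in the record; the read-out is not stated. The concentration is filed as 10 mM, unlikely as a test dose, so the dose is not known. The record gives no direction; compounds strong in two other growth screens of this library score well above the rest, so higher reads as stronger inhibition. Of about 53,000 compounds tested this way, about 900 (1.7%) reached 50% or more in at least one test.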

Each number is a percent effect as filed.
How 0% and 100% were set is not recorded. Most values in the screen are low, and negative values occur.
The compounds are a random part of those screened.
A dash means the value is not listed here; it may have been measured.

| SMILES | Mtb heat-shock | Mtb growth Cornell |
|---|---|---|
| `Cc1ccccc1OCCN1CCN(Cc2cnn(CCO)c2)CC1` | -22.38% | - |
| `Cc1ncc(CNCC(=O)NC2CCCCC2)n1-c1ccccc1` | -16.41% | -7.81% |
| `Nc1nc(Cn2ccnc2-c2cc(CN3CCCC3)cs2)cs1` | -31.74% | -54.81% |
| `O=S(=O)(NCc1ccccc1)NCc1nc(-c2ccncc2)n[nH]1` | -13.49% | 16.38% |
| `Cc1nccn1-c1nccnc1C1CCCN(C2CCCC2)C1` (stereo not given) | -30.08% | -26.29% |
| `CCOC(=O)CC1CCCCN1C(=O)c1cnc(C)cn1` (stereo not given) | 17.77% | 27.82% |
| `O=C(O)C(F)(F)F.O=C(O)C(F)(F)F.c1cncc(COCc2nnc3n2CCN(Cc2ccoc2)C3)c1` | -0.5043% | -29.97% |
| `c1cnc(N2CCCn3c(nnc3Cn3cccn3)C2)nc1` | -13.84% | -22.05% |
| `O=C(CCn1ccnc1)N1CCCC(n2cncn2)C1` (stereo not given) | -14.15% | -24.47% |
| `Cc1c(Br)cccc1C(=O)Nc1cc(C(N)=O)n(C)c1` | 30.99% | 2.948% |
| `CCc1ccc(C(COC)NC(=O)c2ccsc2)o1` (stereo not given) | -0.4605% | 37.56% |
| `CCCn1ccnc1-c1cccc(NC(=O)C2CCCOC2)c1` (stereo not given) | 0.6407% | - |
| `CCS(=O)(=O)N1CCC(NC(=O)c2cc3ccccc3cc2O)CC1` | -2.005% | - |
| `CN(Cc1cnc(N)nc1)C(=O)c1coc(COc2cccc(F)c2)n1` | -21.68% | - |
| `COCCC(=O)N[C@H]1CC[C@H](Nc2nccc(-c3ccncc3)n2)C1` | 13.34% | 20.22% |
| `CC(C)OCCS(=O)(=O)c1nccn1-c1cccc(F)c1` | -8.603% | -9.642% |
| `CC(COc1ccccc1)NCc1cn2ccccc2n1` (stereo not given) | -14.34% | -22.44% |
| `CCS(=O)(=O)N1C[C@@H](c2cc(O)nc(C)n2)[C@H](c2ccccc2F)C1` | -19.34% | -22.38% |
| `COc1ccc(C(C)NC(=O)Nc2nccs2)cc1OC` (stereo not given) | -19.48% | 2.199% |
| `COCCc1noc(-c2ccc(N[C@H]3CCCCNC3=O)nc2)n1` | -39.85% | - |
| `CCC(NCc1cc[nH]n1)c1nc(C(F)(F)F)cs1` (stereo not given) | -17.96% | -6.247% |
| `Cc1noc(C)c1CNC(=O)NCCOc1ccc(F)cc1F` | -15.42% | - |
| `CC(C(=O)NCC(C)(C)c1ccc(Br)cc1)n1cncn1` (stereo not given) | 20.48% | -1.762% |
| `COCCO[C@@H]1CCN(C(=O)c2ccnnc2)[C@H]1Cc1cnn(C)c1` | -9.679% | 2.018% |
| `CC(C)c1cnc(N2C[C@H](CO)C[C@H](CN3CCOCC3)C2)nc1` | -7.431% | 27.28% |
| `Cc1ccc(C(=O)N2CCOCC3(CCN(C4CCOCC4)C3)C2)o1.O=C(O)C(F)(F)F` (stereo not given) | -60.59% | -20.39% |
| `CN(C(=O)CNc1ccc(C#N)cc1)C1CCN(c2ccccn2)CC1` | 12.85% | - |
| `CCc1nc(CC(=O)N2CCn3c(nnc3C(F)(F)F)C2)cs1` | 7.085% | - |
| `CC(C)c1cc(NC2CCN(C(=O)N3CCCC3)CC2)ncn1` | -28.42% | 1.95% |
| `CCc1cn[nH]c1C1CCN(c2cc(C)c3ccc(OC)cc3n2)CC1` | -17.8% | 2.528% |
| `CCCn1ccnc1CN1CCC(Oc2ccc(Cl)cc2)(C(=O)O)CC1` | 19.9% | -24.9% |
| `Cl.O=C1N(Cc2ccc(Cl)cc2)CCC12CCCNC2` (stereo not given) | -21.32% | -1.359% |
| `O=C1CN(c2ccc(CNC(=O)NCCO)cc2)CCN1` | -7.716% | -27.39% |
| `CCc1noc(C)c1C(=O)N1CCCC1c1c(C)nn(C)c1OC` (stereo not given) | 9.554% | 18.4% |
| `O=C(Cc1cccnc1)N1CCC(c2nnc(-c3ccccn3)o2)CC1` | -15.37% | -8.194% |
| `O=C(NCc1ccccn1)NCC(c1ccco1)N1CCCC1` (stereo not given) | 24.32% | - |
| `[H][C@@]12CCN(C(=O)c3ccsc3)[C@]1([H])CCC(=O)N2CC1CC1` | 5.535% | 13.66% |
| `O=C(O)C(F)(F)F.[H][C@@]12COC[C@]1(CN(C)C)CN(C(=O)Cc1ccc3c(c1)OCO3)C2` | -23.12% | -11.14% |
| `Cc1csc(CCNC(=O)Nc2cc(C(F)(F)F)c[nH]c2=O)n1` | 1.422% | -0.8215% |
| `c1ccc(-c2cc(CNCCCN3CCCCC3)c3nnnn3c2)cc1` | -9.529% | -73.02% |
| `Cc1nnsc1C(=O)N(C)Cc1nc(-c2ccccn2)no1` | 6.159% | -10.21% |
| `Cn1nc(CN2CCCCC2)c2c1CN(C(=O)c1ccccc1)C2` | -26.75% | - |
| `O=C(O)c1nc(SCc2ccc(F)cc2)ncc1Br` | 0.4939% | 2.851% |
| `O=C(NCCCn1nc2ccccn2c1=O)Nc1ccccc1` | -29.75% | - |
| `c1ccc(Cc2noc(-c3ccc(NCC4COCCO4)nc3)n2)cc1` (stereo not given) | 2.587% | 30% |
| `CCc1nnsc1C(=O)N1CCN(CC(O)CC)CC1` (stereo not given) | -24.51% | - |
| `CCN(CC)c1ccc(-c2ccc(C)c(S(N)(=O)=O)c2)nn1` | 6.379% | 10.57% |
| `CC(=O)NCCNC(=O)Nc1cc(C(C)(C)C)sc1C#N` | 1.701% | -20.15% |
| `CN(C)c1cc(CNC(=O)c2cccnc2O)ccn1` | -0.2502% | - |
| `CN(C)C(=O)CNC(=O)c1cc2ccccc2nc1N1CCCC1` | -27.81% | - |
| `CN1C[C@H](O)[C@]2(CCN(Cc3ccc(F)c(F)c3)C2)S1(=O)=O` | -31.44% | -29.01% |
| `COc1ccc(CNc2ncc(-c3cc(C)no3)c(C(C)C)n2)cc1` | 8.225% | 36.58% |
| `O=C(CCn1ccc2ccc(Br)cc21)/N=c1\[nH]nc(C2CCCO2)s1` (stereo not given) | -3.02% | 34.26% |
| `O=S(=O)(c1ccccc1Cl)N1CCCC(c2ncc[nH]2)C1` (stereo not given) | -12.6% | -48.74% |
| `CC(C)c1noc(CCC(=O)NCC(c2ccco2)N2CCCC2)n1` (stereo not given) | -9.77% | - |
| `c1cc(CCNc2ncc(-c3cnccn3)c(C3CC3)n2)ccn1` | 3.588% | 3.913% |
| `Cc1nc(CNC(=O)NC2CC(C)(C)OC2(C)C)sc1C` (stereo not given) | -7.57% | - |
| `O=C(O)C(F)(F)F.[H][C@@]12CCN(c3ncc(F)cn3)[C@]1([H])CC[C@@H](C(=O)N1CCC(C)CC1)O2` | 1.801% | 4.818% |
| `CN(C)C1CCN(C(=O)c2ccnn2-c2ccc3ccccn23)CC1.O=C(O)C(F)(F)F` | -24.02% | -12.24% |
| `CC(C)c1noc(CCC(=O)NCC2CC2)n1` | -19.16% | - |
| `CCN(C(=O)Nc1cccnc1OC)C1CC1` | -23.67% | 11.58% |
| `O=C(N[C@H]1CN(c2nc(CO)cs2)C[C@@H]1C1CC1)C1CCCCC1` | 9.229% | 56.52% |
| `Cc1cccc(-c2nccn2-c2cccc(CC(=O)O)c2)n1` | 2.875% | 25.84% |
| `CCOc1cc(F)ccc1NC(=O)NCC(c1cnn(C)c1)N(C)C` (stereo not given) | -14.08% | - |
| `O=C(O)C(F)(F)F.[H][C@@]12CCCO[C@]1([H])[C@H](OCc1cccnc1)CN2S(=O)(=O)CC` | 0.9923% | 4.136% |
| `CCc1nc(C2CCCN2c2ncc(C(F)(F)F)cc2Cl)no1` (stereo not given) | -4.364% | 18.84% |
| `Cc1cnn(CCNCc2ccccc2Oc2cccnc2)c1` | -7.152% | - |
| `Cc1cc2[nH]c(CN3CCCCC3c3cccc(F)c3)cc(=O)n2n1` (stereo not given) | -20.81% | 22.89% |
| `CC(C)(C#N)C(=O)N1CCCC(c2cc(C(F)(F)F)[nH]n2)C1` (stereo not given) | 2.897% | 10.12% |
| `O=C(O)C(F)(F)F.[H][C@]12CCCN(Cc3ccsc3)[C@@]1([H])CN(S(C)(=O)=O)C2` | -52.59% | -20.64% |
| `CC(C)OC(=O)CNC(=O)Nc1ccc(-c2nc(C(C)C)no2)cc1` | 6.479% | 13.56% |
| `O=C(O)C(F)(F)F.[H][C@@]12C[C@H](C(=O)NCC3CC3)C[C@]1([H])OCCN2` | -1.604% | 16.22% |
| `c1ccc(-c2noc(CN3CCOC(Cn4cccn4)C3)n2)nc1` (stereo not given) | 10.68% | - |
| `[H][C@]12CC[C@]([H])(CN(Cc3ccncc3)C1)N(C(=O)CSc1ccccc1)C2` | -10.68% | - |

The last 5 entries again:

For O=C(O)C(F)(F)F.[H][C@]12CCCN(Cc3ccsc3)[C@@]1([H])CN(S(C)(=O)=O)C2 the result was Mtb heat-shock: -52.59%; Mtb growth Cornell: -20.64%.
For CC(C)OC(=O)CNC(=O)Nc1ccc(-c2nc(C(C)C)no2)cc1 the result was Mtb heat-shock: 6.479%; Mtb growth Cornell: 13.56%.
For O=C(O)C(F)(F)F.[H][C@@]12C[C@H](C(=O)NCC3CC3)C[C@]1([H])OCCN2 the result was Mtb heat-shock: -1.604%; Mtb growth Cornell: 16.22%.
For c1ccc(-c2noc(CN3CCOC(Cn4cccn4)C3)n2)nc1 (stereo not given) the result was Mtb heat-shock: 10.68%.
For [H][C@]12CC[C@]([H])(CN(Cc3ccncc3)C1)N(C(=O)CSc1ccccc1)C2 the result was Mtb heat-shock: -10.68%.